# Percent effect of library compounds

Measurements from “University of Dundee, Small-Polar-MMV Screening Library” (2021), ChEMBL document CHEMBL3988442.

Each number is a percent effect as filed.
How 0% and 100% were set is not recorded. Most values in the screen are low, and negative values occur.
Compounds were drawn at random from those tested, without regard to their results.

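Whole-parasite assay of Trypanosoma brucei over 72 hours; the read-out is not stated. Concentration: 30 µM. The record gives no direction; compounds that gave an IC50 in retests scored well above the rest, so higher reads as stronger inhibition. Values scatter widely below zero; nearly all retest evidence comes from the higher of the two concentrations used. Of about 64,000 compounds tested this way, about 940 (1.5%) reached 50% or more in at least one test.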

structure | Percent Effect
CCCNC(=O)CCC(=O)N1CCC(c2noc3cc(F)ccc23)CC1 | 26.97
CCCc1nc(CNC(C)Cn2cccn2)cs1 (configuration not stated) | -4.23
CCS(=O)(=O)CCN(C)Cc1cc(C)ccc1OC | -23.86
O=C(O)C(F)(F)F.O=C(O)C(F)(F)F.[H][C@@]12CN(Cc3ccc(F)cc3)C[C@]1([H])C(=O)N(CCN1CCCC1)C2 | 4.657
O=C(CO)N1CC[C@@H](N2CCN(c3ccccc3F)CC2)[C@H](O)C1 | -52.99
O=C(O)C(F)(F)F.[H][C@@]12CCCO[C@]1([H])[C@@H](OC)CN2C(=O)c1cccnc1 | -49.74
Clc1ccc(OCCCN2CCN(c3cnccn3)CC2)cc1 | 6.315
CCc1nnc2n1CCN(C(=O)c1ccnc(N(C)C)c1)C2 | -8.914
Cc1cc(CN2CCC(CNC(=O)c3ccc(C#N)cc3)C2)[nH]n1 (configuration not stated) | -331.2
O=C1N(CCO)CCCC12CCN(Cc1nnc(C3CC3)o1)C2 (configuration not stated) | 13.91
Cc1csc(CNC(=O)NCCc2ccc3c(c2)OCCO3)n1 | -32.69
Cc1csc(C2CCCCN2C(=O)CCCn2cncn2)n1 (configuration not stated) | -92.38
Cc1nc(Nc2ncccn2)cc(C2CCCN2C)n1 (configuration not stated) | 11.59
CCN1CCC(CNCc2cc(OC)ccc2OC)C1 (configuration not stated) | -18.35
[H][C@@]12CS(=O)(=O)C[C@]1([H])N(C(=O)c1[nH]c3ccccc3c1CC)CCN2C | -7.139
Cc1nc2c(N3CCN(Cc4ccccc4)CC3)nc(N)nc2n1C | -12.2
CCCC(C)NCc1cccnc1N1CCN(c2ccccn2)CC1 (configuration not stated) | 0.1022
CCCc1nc(C(=O)N2CCN(C(=O)OC)CC2)cs1 | -66.42
CC1CC(=O)c2cc(C(=O)N3CCc4ccccc4C3)c(=O)[nH]c2C1 (configuration not stated) | -6.97
[H][C@]12CNC[C@@]1(C(=O)NCCSC(C)(C)C)CN(S(C)(=O)=O)C2 | -0.5897
Cc1nnc(N2CCC(NS(C)(=O)=O)CC2)c(C#N)c1C | 24.65
O=c1nc(SCc2cccnc2)c2c(n1CCO)CCC2 | -36.24
COCCN1CC2(CCCN(C(=O)NCCc3cccs3)C2)CCC1=O (configuration not stated) | -37.17
O=C(O)c1ccnc(-c2ccnc(N3CCC(F)(F)CC3)n2)c1 | -29.7
O=C(c1cccs1)N1CCc2ncnc(C3CCOC3)c2CC1 (configuration not stated) | -23.72
[H][C@]12C[C@@H](CN3CCCC3)N(C(C)C)[C@@]1([H])CCN(Cc1cnn(C)c1)C2 | -39.23
Cc1cccc(N2N=C(C(=O)NC(C)Cc3ccco3)CCC2=O)c1 (configuration not stated) | 15.2
Cc1cc(C)n(CC2CCCN2C(=O)CCCc2ccccn2)n1 (configuration not stated) | -44.9
CCN1CC2(CCN(C(=O)c3nc4cc(C)ccn4c3F)CC2)CC1=O | -52.26
CNS(=O)(=O)c1cc(C)c2[nH]c(=O)cc(C)c2c1 | -14.07
CC(=O)NCCNC(=O)CN1CCOC(Cn2cc(C)cn2)C1 (configuration not stated) | 2.706
COc1cccc(COC(C)C(=O)N(C)Cc2nnc3n2CCC3)c1 (configuration not stated) | -54.46
O=C(NCCNc1cncc(Br)c1)c1ccc(O)cc1 | -22.24
CCC(=O)Nc1ccc2c(ccn2CC(=O)N(CC)CC)c1 | 6.813
Cl.[H][C@@]12OCCC[C@]1([H])NC[C@H]2NC(=O)c1cnccn1 | -4.124
CCOCC1CCN(C(=O)C(c2ccccc2F)N(C)C)CC1 (configuration not stated) | -41.99
COCCN1CCN(CC(=O)NC2(C#N)CCCC2)CC1C (configuration not stated) | -67.12
CCCn1c(C)c(CC(=O)NCC(N)=O)c2c1CC(C)(C)CC2=O | -5.511
Cc1n[nH]c(C)c1Sc1ccccc1NC(=O)CN1CCCC1 | -22.53
COc1ccc(OC)c(-n2cnnc2COC(C)C)c1 | 0.8366
O=C(O)C(F)(F)F.[H][C@@]12OCCN(C(=O)c3ccccc3C)[C@@]1([H])CC[C@H]2OCCN(C)C | -28.03
Cc1nc(CN2CCCC(NCc3cccc(C(N)=O)c3)C2)no1 (configuration not stated) | -15.66
C1CC(c2noc(C3CC3)n2)CN(Cc2noc(C3CC3)n2)C1 (configuration not stated) | -19.43
O=C(c1ccccn1)N1CCN(c2ccc(-c3cccnc3)nn2)CC1 | -10.13
Cc1nnc2n1CCN(C(=O)c1cc(Cl)c(Cl)n1C)C2 | -19.17
CO[C@@H]1CCN(C(=O)c2ccccn2)[C@H]1Cc1ccccc1.O=C(O)C(F)(F)F | 3.29
CN(Cc1ccccc1F)C(=O)c1cc(Cl)c[nH]1 | -22.55
CS(=O)(=O)NC1CCN(C(=O)c2ccc(Br)o2)C1 (configuration not stated) | -22.13
[H][C@]12CN(c3ncccn3)C[C@@]1([H])S(=O)(=O)CC[C@@H]2C(=O)NC(C)C | -126.9
COCCN1CCC2(CC1)CC(NCc1cncn1C)c1ccccc12.O=C(O)C(F)(F)F.O=C(O)C(F)(F)F (configuration not stated) | -69.89
Cc1ccc(C(O)CNC(=O)NCc2c(C)cc(C)[nH]c2=O)cc1 (configuration not stated) | 13.93
Cc1nnc(NCc2ccc(F)cc2)o1 | -52.4
O=C(Cc1ccsc1)NCCc1ccoc1 | -9.305
Clc1cccc(OCCCN2CCOC(Cn3cncn3)C2)c1 (configuration not stated) | 4.822
O=C(CCc1nc2cc(Br)cnc2[nH]1)NCCCn1ccnc1 | -17.15
Cc1cc(CNC(=O)Nc2cc(F)cc(N3CCCC3)c2)no1 | -64.62
O=C(O)C(F)(F)F.[H][C@@]12CCN(C(=O)c3cccnc3OC)C[C@@]1([H])O[C@@H](c1nnc(C)[nH]1)C2 | -7.22
COc1cccc2c1N(C(=O)c1ccc(C)nc1)CCC2 | -0.08717
CC(C)Cc1cc(C(=O)N2CCC(Cc3cnn(C)c3)C2)cc(O)n1 (configuration not stated) | -0.1146
CN1CCN(C(=O)c2cc3c(s2)CCN3C(=O)C2CC2)CC1 | -11.6
COCc1ccccc1C(=O)N1CCCC(c2cc(C)[nH]n2)C1 (configuration not stated) | -31.14
O=C(Cc1ccon1)N1CCc2cc(Br)sc2C1 | -31.61
O=C(NCc1ccc(-n2cncn2)nc1)c1cc[nH]n1 | -0.3242
O=C(O)C(F)(F)F.[H][C@@]12CN(CC3CC3)CC[C@]1([H])CN(c1ncc(C)cn1)C2 | -43.54
CCCc1nc(CN2CCCC(c3noc(C4CC4)n3)C2)no1 (configuration not stated) | -24.17
Cc1nccc(C2CCCCN2Cc2ccc(F)cc2)n1 (configuration not stated) | -16.39
CC(CN1CCOC1=O)NC(=O)c1ccccc1Oc1ccccc1 (configuration not stated) | -24.03
CCCn1cc(-c2ccnc(NC3CCc4ccccc43)n2)c(C)n1 (configuration not stated) | 34.15
COCC(NC(=O)c1cc[nH]n1)c1cccc(C(F)(F)F)c1 (configuration not stated) | -61.44
CN(CCCOc1ccccc1)C(=O)c1csc(-c2nnc[nH]2)n1 | -8.948
Cc1cc(C(=O)N2CCCC2)ccc1NCc1nc(CC(C)C)no1 | -5.107
CCOc1ccc(Cl)c(C(=O)N2CCN(C(=O)OC)CC2)n1 | -2.256
Cc1cnc(NC(=O)CSC2CCc3ccccc3NC2=O)s1 (configuration not stated) | 15.83